# For at least one compound, name, drawing or mass did not settle the structure.
# How the values were obtained:
# BCR^HEL B-cells = experiment: Proliferation (H3-thymidine) and apoptosis (7AAD) of normal B-cells activated with antibodies to IgM and CD40; format: cell-based, mouse; conditions: BCR^HEL B-cells stimulated with antibodies to IgM and CD40
# Eμ-MYC/BCR^HEL tumors = experiment: Therapeutic trial on transplanted Eμ-MYC/BCR^HEL tumors (B-CLL model); format: in vivo, mouse; conditions: daily intravenous injections for 7 days
# Method: Groups of 6 mice were utilized for each of the experimental protocols. Four mice bearing transplanted tumors, and two age and sex matched wild type mice were treated with the same drug and equal frequency. The transplant recipient mice were held until tumors became clinically apparent (approximately 100 days for the Eμ-MYC tumors, 58 days for the Eμ-MYC/BCR^HEL tumors, 21 days for the Eμ-MYC/BCR^HEL/sHEL tumors, and 14 days for the MMTV-rtTA/TRE-MYC/BCR^HEL/sHEL tumors). The mice then received daily injections of the indicated agents for 7 days, as applicable. Mice were either euthanized 24 hours after the last injection of drug, or held indefinitely to ascertain survival. Lymph nodes, spleens and bone marrows were collected and processed to generate single cell suspensions. The cells were counted as described above. An aliquot from the cell suspensions was stained with antibodies for B220, Thy 1.2, Mac-1, IgM^a, B7-2, and CD69, in order to determine the proportion of B-cells, T-cells and myeloid cells, as well as the activation status of the HEL-reactive B-cells. Treatments were performed with cyclosporin A (Bedford laboratories, Bedford Ohio) (2 mg/kg/day), FK506 (Prograf, Fujisawa Healthcare, Deerfield, Ill.) (2 mg/kg/day), rapamycin (Biomol, King of Prussia, Pa.) (2 mg/kg/day), and cyclophosphamide (1 mg/kg/day) (Bristol-Myers Squibb, Princeton, N.J.). […]
SMILES,proliferation and survival (BCR^HEL B-cells),response of transplanted Eμ-MYC/BCR^HEL tumors to drug (Eμ-MYC/BCR^HEL tumors)
"CO[C@H]1C[C@@H]2CC[C@@H](C)[C@@](O)(O2)C(=O)C(=O)N2CCCC[C@H]2C(=O)O[C@H]([C@H](C)C[C@@H]2CC[C@@H](O)[C@H](OC)C2)CC(=O)[C@H](C)/C=C(\C)[C@@H](O)[C@@H](OC)C(=O)[C@H](C)C[C@H](C)/C=C/C=C/C=C/1C [Rapamycin, rapamycin]",dose-dependent changes in proliferation and survival,but not
C=CC[C@@H]1/C=C(\C)C[C@H](C)C[C@H](OC)[C@H]2O[C@@](O)(C(=O)C(=O)N3CCCC[C@H]3C(=O)O[C@H](/C(C)=C/[C@@H]3CC[C@@H](O)[C@H](OC)C3)[C@H](C)[C@@H](O)CC1=O)[C@H](C)C[C@@H]2OC [FK506],dose-dependent changes in proliferation and survival,but not
